From PubChem BioAssay AID256 (DTP/NCI, 2004)
The list shows only some results of the screen, not a fair sample: it is rich in T/C values a quarter to a half above the control, in often repeated tests (any T/C) and in doses without a T/C. Other doses and runs of a compound stand elsewhere. T/C gives the treated animals as a percentage of the vehicle group. Some entries give survivors of the animals treated and no T/C: the source holds a T/C of zero for them, seemingly a mark for toxic or unscored doses. Some doses without a T/C left all or most animals alive at the check, yet need not have been tolerated: survival well below the control is almost never listed, so the zero probably covers shortened survival too. Counts of survivors are from the toxicity check (mostly the fifth day) where no day follows; animals may have died later. Schedule codes are those of the source, taken here to give the interval after Q, in days (D) or hours (H), and the number of doses after X. Some entries hold several experiments; the results are listed from low to high. Signs of the kind (2×) say how often a value occurs here. For survival time, this PubChem deposit counts one and a half times the control or more as active, and values a quarter to a half above the control carry no call in these data; other NCI protocols may use other cut-offs. Some T/C values carry the count of animals alive at the toxicity check (mostly the fifth day); without a count, all were alive then.

Test system: CD2F1 mice, L1210 leukemia ip, survival T/C
Test: NCI In Vivo Anticancer Drug Screen. Data for tumor model L1210 Leukemia (intraperitoneal) in CD2F1 (CDF1) mice
Settings: T/C endpoint: median survival time, higher T/C = longer survival
Summary of the method: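 Each value reflects a quotient of treated over vehicle control outcomes in mice with a transplanted tumor.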

[1] = dose: 160.0 mg/kg/injection, schedule: Q01DX005 (ip), vehicle: alkali diluted with saline

S=c1nc[nH]c2nc[nH]c12
T/C (dose: 40.0 mg/kg/injection, schedule: Q01DX005 (ip), vehicle: alkali diluted with water, evaluated on day 35): 137 % of control
T/C (dose: 40.0 mg/kg/injection, schedule: Q01DX005 (ip), vehicle: saline): 101, 146, 151, 160, 164, 166 % of control
T/C (dose: 40.0 mg/kg/injection, schedule: Q01DX009 (ip), vehicle: alkali diluted with saline, evaluated on day 30): 149 % of control
T/C (dose: 40.0 mg/kg/injection, schedule: Q01DX009 (ip), vehicle: alkali diluted with saline, evaluated on day 45): 134 % of control
T/C (dose: 40.0 mg/kg/injection, schedule: Q01DX009 (ip), vehicle: water, evaluated on day 5): 147 % of control
T/C (dose: 40.0 mg/kg/injection, schedule: Q01DX009 (ip), vehicle: water, evaluated on day 33): 147 % of control
T/C (dose: 43.2 mg/kg/injection, schedule: Q01DX009 (ip), vehicle: alkali diluted with saline): 129 % of control
T/C (dose: 50.0 mg/kg/injection, schedule: Q01DX005 (ip), vehicle: alkali diluted with water): 141 % of control
T/C (dose: 50.0 mg/kg/injection, schedule: Q01DX009 (ip), vehicle: alkali diluted with saline, evaluated on day 5): 141 % of control
T/C (dose: 50.0 mg/kg/injection, schedule: Q01DX009 (ip), vehicle: alkali diluted with saline, evaluated on day 30): 154 % of control
T/C (dose: 50.0 mg/kg/injection, schedule: Q01DX009 (ip), vehicle: alkali diluted with saline, evaluated on day 45): 135, 138, 147, 153 % of control
T/C (dose: 60.0 mg/kg/injection, schedule: Q01DX001 (ip), vehicle: alkali diluted with water): 125 % of control
T/C (dose: 60.0 mg/kg/injection, schedule: Q01DX009 (ip), vehicle: Klucel (hydroxypropylcellulose) (HPC)): 136 % of control
T/C (dose: 60.0 mg/kg/injection, schedule: Q01DX009 (ip), vehicle: alkali diluted with saline): 146 % of control
T/C (dose: 80.0 mg/kg/injection, schedule: Q01DX005 (ip), vehicle: alkali diluted with saline): 144, 146, 151, 160, 176, 178, 217 % of control [4 of 6 alive]
T/C (dose: 80.0 mg/kg/injection, schedule: Q01DX005 (ip), vehicle: alkali diluted with water, evaluated on day 20): 136, 144, 147, 151 (2×), 164, 182 % of control
T/C (dose: 80.0 mg/kg/injection, schedule: Q01DX005 (ip), vehicle: alkali diluted with water, evaluated on day 30): 120, 129, 137 (2×), 144, 146 (2×), 148 (2×), 149, 151, 152, 153, 154 (3×), 155 (2×), 156 (2×), 157 (2×), 159 (2×), 163, 164, 166 [5 of 6 alive], 168, 169, 174, 176, 178, 185, 215 % of control
T/C (dose: 80.0 mg/kg/injection, schedule: Q01DX005 (ip), vehicle: alkali diluted with water, evaluated on day 35): 204 % of control
T/C (dose: 80.0 mg/kg/injection, schedule: Q01DX005 (ip), vehicle: saline): 106, 151, 170, 177, 212, 213 % of control
T/C (dose: 100.0 mg/kg/injection, schedule: Q01DX009 (ip), vehicle: alkali diluted with water): 134 % of control
T/C (dose: 120.0 mg/kg/injection, schedule: Q04DX003 (ip), vehicle: other): 128 % of control
survivor count (dose: 125.0 mg/kg/injection, schedule: Q01DX001 (ip), vehicle: alkali diluted with saline): 3 of 10
T/C (dose: 138.8 mg/kg/injection, schedule: Q01DX009 (ip), vehicle: alkali diluted with saline): 141 % of control
survivor count (dose: 150.0 mg/kg/injection, schedule: Q01DX001 (ip), vehicle: alkali diluted with saline): 5 of 10
T/C [1]: 93, 98, 134, 149, 151, 170 % of control
survivor count [1]: 5 of 6
T/C (dose: 160.0 mg/kg/injection, schedule: Q01DX005 (ip), vehicle: alkali diluted with water, evaluated on day 20): 130, 134, 141, 150, 163, 170 % of control
T/C (dose: 160.0 mg/kg/injection, schedule: Q01DX005 (ip), vehicle: alkali diluted with water, evaluated on day 30): 95, 98, 100 [5 of 6 alive], 103 (2×), 104, 106, 111, 112, 114, 116, 117 (2×), 121, 123, 123 [4 of 6 alive], 134, 142, 144, 146, 147, 148, 152, 153, 155, 157 [5 of 6 alive], 158 (2×), 164, 168, 170, 193 % of control
T/C (dose: 160.0 mg/kg/injection, schedule: Q01DX005 (ip), vehicle: alkali diluted with water, evaluated on day 35): 164 % of control
survivor count (dose: 160.0 mg/kg/injection, schedule: Q01DX005 (ip), vehicle: alkali diluted with water): 5 of 6 and 6 of 6 (2×)
T/C (dose: 160.0 mg/kg/injection, schedule: Q01DX005 (ip), vehicle: saline): 111, 113, 170, 175, 179, 185 % of control
T/C (dose: 160.0 mg/kg/injection, schedule: Q01DX005 (ip), vehicle: water): 141 % of control
T/C (dose: 167.0 mg/kg/injection, schedule: Q01DX001 (ip), vehicle: alkali diluted with water): 145 % of control [4 of 5 alive]
T/C (dose: 300.0 mg/kg/injection, schedule: Q04DX003 (ip), vehicle: Klucel (hydroxypropylcellulose) (HPC)): 146 % of control
survivor count (dose: 400.0 mg/kg/injection, schedule: Q01DX009 (ip), vehicle: alkali diluted with water): 1 of 6
